According to US20250321233A1, “PRECISION MEDICINE FOR TREATMENT OF KIDNEY FUNCTION DECLINE” (Joslin Diabetes Center, Inc., priority 2022, published 2025):
At least one compound was matched to its structure with a doubt left.

Tests used:
JKP proteins = assay: Effect of Baricitinib on 1-year changes of the JKP proteins in Baricitinib trial participants (OLINK proximity extension assay); format: in vivo, human; conditions: 5 proteins (FIG. 3B for TNFR7 and IL-1RT1), 4 mg baricitinib, 17 Baricitinib vs 25 placebo
[1] = Beneficial effect of fenofibrate on loss of kidney function in ACCORD trial participants, by baseline JKP protein levels; format: in vivo, human; conditions: ACCORD patients who had levels of two proteins (EFNA4 and DLL1, FIG. 3A) above the median

| SMILES | levels of JKP proteins relative to placebo (JKP proteins) | loss of kidney function [1] |
| --- | --- | --- |
| CCS(=O)(=O)N1CC(CC#N)(n2cc(-c3ncnc4[nH]ccc34)cn2)C1 [Baricitinib] | significantly decreased | – |
| CC(C)OC(=O)C(C)(C)Oc1ccc(C(=O)c2ccc(Cl)cc2)cc1 [Fenofibrate] | – | reduced loss of kidney function |
